This is one part of the list.
Each sequence was assayed against OsWRKY34 (Oryza sativa, UniProt Q0JBA9 1-250) (assay: protein-binding microarray (RPBM); PBS, 2% BSA, 51.3 ng/ul salmon testes DNA, 50 uM zinc acetate, 200 nM TF, 25 C, 1 h; high values mean tight binding). Conditions: protein: recombinant; tags: N-terminal polyhistidine and DsRed monomer fusion (pET32a); label: CyDye5-dUTP incorporated in the synthesized complementary strand; 3' TTTTT single-stranded linker to array surface; dsDNA, one strand shown.
How it was run: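 Using Ni–NTA, transcription factors fused N-terminally to polyhistidine and DsRed were purified after expression in E. coli BL21-CodonPlus. These were incubated at 200 nM with a blocked, double-stranded custom Agilent array for 1 h at 25 °C in a buffer containing 50 µM zinc acetate, and the array was washed. The binding signal is per-feature fluorescence intensity (arbitrary units) on an Axon 4000B scanner.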

Protein sequences, listed by entry. Tags and fused reporters are not part of them.
UniProt Q0JBA9, entry or part of it: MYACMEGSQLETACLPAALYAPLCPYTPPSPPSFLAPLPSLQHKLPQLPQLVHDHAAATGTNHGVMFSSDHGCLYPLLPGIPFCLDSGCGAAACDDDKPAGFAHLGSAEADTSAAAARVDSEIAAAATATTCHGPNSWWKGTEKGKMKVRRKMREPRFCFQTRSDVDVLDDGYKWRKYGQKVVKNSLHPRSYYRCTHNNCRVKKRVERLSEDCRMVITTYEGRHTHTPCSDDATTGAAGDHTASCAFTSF

| Sequence | binding signal |
| --- | --- |
| CTGTGTTTCAAAGGGATCTTAAGTGTACATTCTATATCATCGGAGTCACCTAGTGCAG | 9450 fluorescence intensity (a.u.) |
| TTCCGGTGAAAATTTTGGCCTCTTTTTCGGAAGTTTTTTTCGGAGTCACCTAGTGCAG | 9600 fluorescence intensity (a.u.) |
| TGATATTTCTGTTTATTTGATTTACATGATACACTAATTTCGGAGTCACCTAGTGCAG | 8940 fluorescence intensity (a.u.) |
| CCTTTCCTAAGTCTCTGTTTTAACATCTCTATTGGGGCATCGGAGTCACCTAGTGCAG | 8940 fluorescence intensity (a.u.) |
| TCCCCGATGATCTCGTACACCATGTCCTCTCGTTCTTGCCCGGAGTCACCTAGTGCAG | 8160 fluorescence intensity (a.u.) |
| GGAAGCATCAACTTTGACTATTTTGGAAAATTCCCAGCCTCGGAGTCACCTAGTGCAG | 8260 fluorescence intensity (a.u.) |
| TCCCGCTTTGACCCGCCTCCGTGTCACTCACTCCCGCCCGCGGAGTCACCTAGTGCAG | 10200 fluorescence intensity (a.u.) |
| TTCCTTGAGTCTATCTCTCATGTGATTCCTGCATTTTTCCCGGAGTCACCTAGTGCAG | 10700 fluorescence intensity (a.u.) |
| ATTTCCACCGTTTGGGTGTGGATGGGAGTGGGATATAGAACGGAGTCACCTAGTGCAG | 11900 fluorescence intensity (a.u.) |
| TTTGATCCCTATTTGAGTTTCCGTTTCACTTTCCAGCACACGGAGTCACCTAGTGCAG | 9320 fluorescence intensity (a.u.) |
| TCCCTCGCCGCCGCCACCGCTCGCCGCTCCTCTCTCGCCGCGGAGTCACCTAGTGCAG | 9440 fluorescence intensity (a.u.) |
| CTTCTTGAGTTCTTGGAGGTCGAGGGGTGGGTCATCAATGCGGAGTCACCTAGTGCAG | 11600 fluorescence intensity (a.u.) |
| GCCGTTAACCATGGTGTGGTGGTCGTCTTCTTCCTCAATACGGAGTCACCTAGTGCAG | 8540 fluorescence intensity (a.u.) |
| ACTGGGCACTATTTCTTCTCTCACTCTCTCTCTCTCTCTCCGGAGTCACCTAGTGCAG | 8550 fluorescence intensity (a.u.) |
| CGCTTTTTGAACGTGGCCAAATATCCATTTTCTCGTCAATCGGAGTCACCTAGTGCAG | 9550 fluorescence intensity (a.u.) |
| TTTTCTGCACACTTTGTCCTCACTCGTGTACACCCGGGAACGGAGTCACCTAGTGCAG | 9270 fluorescence intensity (a.u.) |
| TGGATCTCCGATTACCTCCCATACTTGGGCTATGATTTTCCGGAGTCACCTAGTGCAG | 9230 fluorescence intensity (a.u.) |
| TCGGCGTCGCTCCTCCTCCAGCTACAGGACCACATCGCCACGGAGTCACCTAGTGCAG | 8120 fluorescence intensity (a.u.) |
| ACTGTTATGTTTGTCCCTTCTGTTTCGGTCACTCCTGGCTCGGAGTCACCTAGTGCAG | 10400 fluorescence intensity (a.u.) |
| CCGTCGCCGCCTGCTATATCTCTCCCTAGGATTTTGGAATCGGAGTCACCTAGTGCAG | 10100 fluorescence intensity (a.u.) |
| AAATACATGTACATCTTCCTTGTTTGCTTCATACTAAGATCGGAGTCACCTAGTGCAG | 11700 fluorescence intensity (a.u.) |

| Sequence | binding signal |
| --- | --- |
| TGCAGGGTGGGGAGGATAGAAGATGCAAGAGGGGTGTTTGCGGAGTCACCTAGTGCAG | 9570 fluorescence intensity (a.u.) |
| CACCTCCACGTCCATCTCTCTCTCTCTCTCCTCTCTCCTCCGGAGTCACCTAGTGCAG | 10400 fluorescence intensity (a.u.) |
| GCCGGGAGGGAGGGAGGGAGGGAGGGAGGGAGACCCCGCACGGAGTCACCTAGTGCAG | 15000 fluorescence intensity (a.u.) |
| TATATTGGATCCACTATCATAACATGATTGTTTTCTCTCACGGAGTCACCTAGTGCAG | 8090 fluorescence intensity (a.u.) |
| CAAGCATTCTCTTCGGTGTACCTTTTCCTTTTGTATCTCCCGGAGTCACCTAGTGCAG | 11500 fluorescence intensity (a.u.) |
| GCTTCTTTCCTCTTTCGCTCCCCACACCCTTCTTTTGTCGCGGAGTCACCTAGTGCAG | 10800 fluorescence intensity (a.u.) |
| ACACAAATTTCCAACTTTTCCGTCACATCGTTCCAATTTCCGGAGTCACCTAGTGCAG | 10500 fluorescence intensity (a.u.) |
| ATTTTTTTTAAAAGTAGTTCTTCTGTTTCATATTATAATACGGAGTCACCTAGTGCAG | 9230 fluorescence intensity (a.u.) |
| CTCACACTACACCCACTCATCCACAGCGATCAACCGCATTCGGAGTCACCTAGTGCAG | 8840 fluorescence intensity (a.u.) |
| CATCGCACTTTTATTATTGTTCAATTCATTGATAACTCATCGGAGTCACCTAGTGCAG | 9760 fluorescence intensity (a.u.) |
| CGGCACTCGCAGGCTCGCAGCGCATGGTAACCATCTTTTACGGAGTCACCTAGTGCAG | 8240 fluorescence intensity (a.u.) |
| AGTATATGATATATGTCACGTATGTCTCTGTGATCGATCACGGAGTCACCTAGTGCAG | 9030 fluorescence intensity (a.u.) |
| AATCAAAATTTAAGCCTTTGTAGCTCGAGTATCACTTTTACGGAGTCACCTAGTGCAG | 8490 fluorescence intensity (a.u.) |
| TTCTTAACATGTCAGTAGTACATTAGTCATATAATCTATACGGAGTCACCTAGTGCAG | 9720 fluorescence intensity (a.u.) |
| CCCCTTTGTTTTGCTGAAGAATTGCTTGTACAGAACTGCTCGGAGTCACCTAGTGCAG | 8480 fluorescence intensity (a.u.) |
| AAGACGGGGCCAGATTGTTATTTTGTATCCCTCATCTCAACGGAGTCACCTAGTGCAG | 9250 fluorescence intensity (a.u.) |
| GAGATGTGTCCATATTTGTAGTATTGGGTGGTATCTATTTCGGAGTCACCTAGTGCAG | 8550 fluorescence intensity (a.u.) |
| CTCCAAGTCCTCGTCTTGGTTGTCGCAATCATTCGTGGGGCGGAGTCACCTAGTGCAG | 9700 fluorescence intensity (a.u.) |
| TTCTATTGGTTGCATGTATTGTATTAATTGGGGTGATTCACGGAGTCACCTAGTGCAG | 8880 fluorescence intensity (a.u.) |
| TTTATTTGGTTTCGTATCGCCATCGCTGCTTTATTGTGTGCGGAGTCACCTAGTGCAG | 9110 fluorescence intensity (a.u.) |
| TCTCGTCTCATCTGGATTGGAATTTTCTCTTCTCTTTAATCGGAGTCACCTAGTGCAG | 9260 fluorescence intensity (a.u.) |
